Out of some 350,000 compounds screened, about 1,200 (0.34%) were called active. The shares of active, inactive and inconclusive entries below differ from those in the screen. Calls follow the shape of the dose curve; as a rule, active = well fitted inhibition curve with a large enough effect; inconclusive = small, poorly fitted or top-dose-only effect; inactive = no such curve, though single readings can be large or run the other way. Potencies beside an inconclusive call are fits to weak or partial responses and may not hold up. The source holds several records for some structures; these can differ, active in one and inactive in another. Residues, ends and D or L forms follow the SMILES beside them.
molecular target: DNA repair nuclease/redox regulator APEX1 (Homo sapiens) (UniProt P27695); assay: qHTS Assay for Inhibitors of the Human Apurinic/apyrimidinic Endonuclease 1 (APE1); conditions: recombinant APE1, TAMRA/BHQ-2 abasic DNA cleavage fluorescence; activity change, negative = inhibition: at 65.8 µM (top of the series); also: nearly all actives have a fitted effect of over 55% in size;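 as to activity change, negative = inhibition: plate controls were vehicle for no effect and reference inhibitor for full effect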
Outline: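 Kinetic fluorescence read (525 ex/598 em nm, three reads 60 s apart) of AP-site incision; signal = third minus first read. Enzyme 0.75 nM, dual-labelled THF duplex 50 nM, compound preincubation 15 min RT.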
Potency is read from the fitted curve at half-maximal effect.

By UniProt entry, the sequences of proteins in these tests, tags left out.
UniProt P27695, whole entry, looked up: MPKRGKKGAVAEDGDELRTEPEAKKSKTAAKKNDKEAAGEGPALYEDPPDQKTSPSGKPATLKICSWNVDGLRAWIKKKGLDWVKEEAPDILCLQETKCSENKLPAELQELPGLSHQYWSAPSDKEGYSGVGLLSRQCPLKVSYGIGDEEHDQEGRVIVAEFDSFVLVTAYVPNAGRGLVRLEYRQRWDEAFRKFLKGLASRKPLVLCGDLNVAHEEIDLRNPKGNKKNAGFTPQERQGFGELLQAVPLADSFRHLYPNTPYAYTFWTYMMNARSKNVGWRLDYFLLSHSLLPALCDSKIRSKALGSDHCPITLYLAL

SMILES	Potency	activity change, negative = inhibition
O=C(c1ccc(CSc2nc3ccncc3[nH]2)cc1)N1CCCCC1	inconclusive: 3.55 µM [inhibitor, single point]	–
O=C(CCC(=O)N1CCN(c2cccc(Cl)c2)CC1)c1cccs1	–	inactive: 3.53%
Cc1ccc(CNC(=O)CCc2nnc3ccc(N4CCC5(CC4)OCCO5)nn23)cc1	–	inactive: -4.22%
COC(=O)[C@H](Cc1ccccc1)NC(=O)[C@@H](C)CO	–	inactive: 35.8% [at 12.4 µM]
c1cc(-c2sc(-c3ccncc3)c(-c3ccncc3)c2-c2ccncc2)ccn1	inconclusive: 25.1 µM [inhibitor, single point]	–
O=C(NCc1ccc2c(c1)OCO2)c1cccc2c1C(=O)N(C1CCCCC1)C2	–	inactive: -1.5%
O=C(COc1ccc(Cl)cc1Cl)NNC(=S)NC(=O)c1ccco1	inconclusive: 0.1 µM [inhibitor, full curve]	–
Cc1cccc(Cc2c(C)nc3nc(SCC(=O)O)nn3c2C)c1	inconclusive: 28.2 µM [inhibitor, single point]	–
CC(C)(C)NC(=O)C(c1ccco1)N(C(=O)Cn1nnc(-c2ccc(F)cc2)n1)c1ccccc1F (stereo unspecified)	inconclusive: 10 µM [inhibitor, partial curve]	–
CC(=O)N[C@@H](CC(=O)O)C(=O)N[C@@H](CCC(=O)O)C(=O)O (Ac-Asp-Glu-OH)	active: 3.55 µM	–
Cc1nn(Cc2c(F)c(F)c(F)c(F)c2F)c(C)c1NC(=O)c1ccc(COc2ccccc2Cl)o1	inconclusive: 22.4 µM [inhibitor, partial curve, poor fit]	–
O=C(Nc1ccccc1)c1ccc(Br)o1	inconclusive: 4.47 µM [inhibitor, partial curve]	–
Cc1cccc(C)c1NC(=O)C1(C)c2cccc[n+]2CC(=O)N1Cc1cccs1 (stereo unspecified)	inconclusive: 1.41 µM [inhibitor, full curve, poor fit]	–
Cc1cccc(N=C2NC(=O)/C(=C/c3cccn3C)S2)c1C	–	inactive: -3.99%
Fc1cccc(CSc2nc3ccncc3[nH]2)c1	inconclusive: 3.55 µM [inhibitor, single point]	–
N/C(=N/OS(=O)(=O)c1ccc([N+](=O)[O-])cc1)c1ccncc1	inconclusive: 5.01 µM [inhibitor, single point]	–
CCOC(=O)Nc1cccc(OCC(=O)Nc2ccc(OC)cc2OC)c1	inconclusive: 0.316 µM [inhibitor, full curve]	–
COc1ccc(-c2cc(C(=O)Nc3ccc(S(=O)(=O)Nc4onc(C)c4C)cc3)c3ccccc3n2)cc1OC	–	inactive: 19.2%
Cc1ccc2cc(CN(Cc3nnnn3Cc3ccco3)CC3CCCO3)c(=O)[nH]c2c1C (stereo unspecified)	inconclusive: 44.7 µM [inhibitor, single point]	–
CC(C)C(C)(C#N)NC(=O)CSc1nc2scc(-c3ccco3)c2c(=O)n1-c1ccccc1 (stereo unspecified)	inconclusive: 39.8 µM [inhibitor, single point]	–
Cc1cc(C(F)(F)F)c2c(n1)sc1c(O)cc(=O)[nH]c12	inconclusive: 2.24 µM [inhibitor, partial curve]	–
C=CCOC(=O)N[C@@H](c1ccc(Br)cc1)C(C(C)=O)C(C)=O	–	inactive: 1.02%

SMILES	Potency	activity change, negative = inhibition
CN(C)c1ncc2nc(-c3ccc(Cl)cc3)c(=O)n(C3CC3)c2n1	–	inactive: 17.5%
CCCN(CCC)c1ncnc2nc[nH]c12	inconclusive: 22.4 µM [inhibitor, single point]	–
CN(C)S(=O)(=O)c1cc(NC(=O)COC(=O)/C=C/c2ccco2)ccc1Cl	inconclusive: 35.5 µM [inhibitor, single point]	–
CNc1ccc(C(=O)Oc2cc(O/N=[N+](\[O-])N(C)C)c([N+](=O)[O-])cc2[N+](=O)[O-])cc1	inconclusive: 28.2 µM [inhibitor, partial curve, poor fit]	–
COc1cc(O)c(C(CCN2CCCCC2)c2cc(OC)c(OC)c(OC)c2)c(OC)c1 (stereo unspecified)	inconclusive: 3.55 µM [inhibitor, single point]	–
CCN(CC)c1ccc(/C=N/OCC(=O)Nc2cccc(C)c2)cc1	–	inactive: 4.3%
O=C1/C(=C/c2ccco2)Oc2c1ccc(O)c2CN1CCCCC1	inconclusive: 39.8 µM [inhibitor, single point]	–
Cc1nn(CCC(=O)N2CCN(S(=O)(=O)c3ccccc3)CC2)c(C)c1C	–	inactive: 63.3%
COc1cccc(OCC(O)CN2CCC(CN3C(=O)c4cccc5cccc(c45)C3=O)CC2)c1 (stereo unspecified)	inconclusive: 31.6 µM [inhibitor, single point]	–
CC(C)[C@H](NC(=O)[C@H](CCCCN)NC(=O)[C@@H](NC(=O)[C@@H]1CCCN1C(=O)[C@H](CCCN=C(N)N)NC(=O)[C@H](CCCN=C(N)N)NC(=O)[C@H](CCCCN)NC(=O)[C@H](CCCCN)NC(=O)CNC(=O)[C@@H](NC(=O)[C@@H]1CCCN1C(=O)[C@@H](N)CCCCN)C(C)C)C(C)C)C(=O)N[C@@H](Cc1ccc(O)cc1)C(=O)N1CCC[C@H]1C(=O)O	–	inactive: 0.615%
CCOC(=O)Cc1cc(=O)n2[nH]c(C)c(-c3ccccc3)c2n1	–	inactive: -5.1%
O=c1cc(O)c(-c2ccc(Cl)cc2)c(Cl)[nH]1	inconclusive: 12.6 µM [inhibitor, partial curve, poor fit]	–
O=C(CNC(=O)c1ccccc1Cl)N/N=C/c1ccc2c(c1)OCO2	–	inactive: -1.79%
O=C1Nc2ccccc2/C1=N/N=C/c1cccc(O)c1	inconclusive: 20 µM [inhibitor, partial curve]	–
COc1ccc2cc(C(N)=O)/c(=N/NC(=O)c3ccco3)oc2c1	inconclusive: 22.4 µM [inhibitor, single point]	–
CCc1nc2ccccc2c(C(=O)OCC(=O)C(C)(C)C)c1C	inconclusive: 14.1 µM [inhibitor, partial curve, poor fit]	–
COc1cc(/C=N/n2nnnc2Nc2ccccc2)cc(OC)c1OC	inconclusive: 12.6 µM [inhibitor, partial curve]	–
CCN(CC)c1ccc(/C=N/NC(=O)c2ccco2)cc1	–	inactive: -7.37%
O=C(NC1CCCc2ccccc21)c1cccc(S(=O)(=O)N2CCN(c3ccccc3)CC2)c1 (stereo unspecified)	inconclusive: 44.7 µM [inhibitor, single point]	–
COc1ccccc1-c1csc(N2CCC(C(N)=O)CC2)n1	–	inactive: 7.87%
O=c1[nH]c(-[n+]2ccccc2)c(/C=N/NC([S-])=Nc2ccccc2)s1	–	inactive: 0.373%
N=C1c2ccccc2CN1c1ccc(S(=O)(=O)N2CCCCC2)cc1	inconclusive: 7.08 µM [inhibitor, single point]	–

SMILES	Potency	activity change, negative = inhibition
NC(=NCc1ccc(Cl)c(Cl)c1)NC(=O)c1nc(Cl)c(N)nc1N	–	inactive: 11.2%
COc1cc(CNc2ccc(O)cc2)cc(Br)c1OCc1ccccc1	inconclusive: 14.1 µM [inhibitor, partial curve, poor fit]	–
CCc1ccc(C(=O)COC(=O)c2cnc(C)cn2)cc1	inconclusive: 8.91 µM [inhibitor, single point]	–
COC(=O)[C@H](CCSC)NC(=O)C/C=C\[C@@H](C)[C@@H](CO)OC	–	inactive: -5.77% [at 12.4 µM]
Cn1c(CNC(=O)CCNC(=O)c2cccc(Cl)c2)cc(=O)n(C)c1=O	–	inactive: 53.1%
O=C(C(Cc1ccccc1)n1cccc1)N1CCCCC1 (stereo unspecified)	inconclusive: 7.94 µM [inhibitor, single point]	–
O=C(NCc1ccc2c(c1)OCO2)c1ccc(C2SCC(=O)N2Cc2ccco2)cc1 (stereo unspecified)	inconclusive: 39.8 µM [inhibitor, single point]	–
CCOC(=O)Nc1sc(C)nc1-c1ccccc1	–	inactive: 1.14%
O=C1C(Cl)=C(N2CCC(C(=O)O)CC2)C(=O)c2ccccc21	inconclusive: 20 µM [inhibitor, partial curve]	–
N#CCCN(C(=O)CSc1ncccn1)c1ccc2c(c1)OCCO2	inconclusive: 37.7 µM [inhibitor, single point]	–
Cc1ccc(S(=O)(=O)/N=C/c2ccco2)cc1	inconclusive: 39.8 µM [inhibitor, single point]	–
C=CC[C@@H](CC(=O)N(CCO)Cc1ccccc1)C(=O)N[C@H](COC(=O)[C@@H](CC=C)CC(=O)OC(C)(C)C)Cc1ccccc1	inconclusive: 29.9 µM [inhibitor, partial curve, poor fit]	–
CC(=O)c1cccc(NC(=O)[C@@H](NC(N)=O)C(C)C)c1	inconclusive: 1 µM [inhibitor, full curve, poor fit]	–
CC(=O)Nc1ccc2c(c1)C(C)(C)C(C)N2C (stereo unspecified)	inconclusive: 25.1 µM [inhibitor, partial curve]	–
CC(C)N=c1scc(-c2cccs2)n1/N=C/c1ccc(O)c(O)c1O	–	inactive: -6.93%
CN(C)c1ccc(CN(C(=O)/C=C/c2ccccc2Cl)C2CCS(=O)(=O)C2)cc1 (stereo unspecified)	inconclusive: 0.562 µM [inhibitor, partial curve, poor fit]	–
Nc1ccc(-c2ccc(N)c([N+](=O)[O-])c2)cc1[N+](=O)[O-]	inconclusive: 39.8 µM [inhibitor, single point]	–
CCCC(=O)OC/C(O)=C(\C#N)c1nc2ccccc2[nH]1	–	inactive: -7.39%
COc1ccc(-c2cc(C(=O)NCCc3ccc(S(N)(=O)=O)cc3)c3ccccc3n2)cc1	inconclusive: 39.8 µM [inhibitor, partial curve]	–
Cc1cccc(OCCn2cc(/C=N/NC(=O)c3ccncc3)c3ccccc32)c1	inconclusive: 44.7 µM [inhibitor, single point]	–
C/C(=N/NC(=O)CSc1nc2ccccc2s1)c1ccncc1	–	inactive: 14.6%
COc1ccc2nc3cccc(OC)c3nc2c1	inconclusive: 22.4 µM [inhibitor, partial curve, poor fit]	–

Part of the list above, bar-delimited.
SMILES | Potency | activity change, negative = inhibition
O=C(c1ccc(CSc2nc3ccncc3[nH]2)cc1)N1CCCCC1 | inconclusive: 3.55 µM [inhibitor, single point] | –
N#CCCN(C(=O)CSc1ncccn1)c1ccc2c(c1)OCCO2 | inconclusive: 37.7 µM [inhibitor, single point] | –
Nc1ccc(-c2ccc(N)c([N+](=O)[O-])c2)cc1[N+](=O)[O-] | inconclusive: 39.8 µM [inhibitor, single point] | –
